The target of assay [1] is Recombinant human GPNMB extra-cellular domain (ECD) with a C-terminus V5-HIS tag (human) (UniProt Q14956). The experiment in a line: Biacore, mAb captured on protein A. (SPR reads the build-up and loss of mass on a sensor chip optically.)
Assay [2] concerns the target GPNMB (CG56972) as expressed by human cell lines (human) (UniProt Q14956). The experiment in a line: immunohistochemistry on normal and tumor human tissue microarrays.
Assay [3] has the same target. The experiment in a line: FACS on UACC-62 cells.

Amino acid sequences for entries named in this document (tags omitted). A change or cut given only in a name is not applied to a line headed by its entry.
UniProt Q14956: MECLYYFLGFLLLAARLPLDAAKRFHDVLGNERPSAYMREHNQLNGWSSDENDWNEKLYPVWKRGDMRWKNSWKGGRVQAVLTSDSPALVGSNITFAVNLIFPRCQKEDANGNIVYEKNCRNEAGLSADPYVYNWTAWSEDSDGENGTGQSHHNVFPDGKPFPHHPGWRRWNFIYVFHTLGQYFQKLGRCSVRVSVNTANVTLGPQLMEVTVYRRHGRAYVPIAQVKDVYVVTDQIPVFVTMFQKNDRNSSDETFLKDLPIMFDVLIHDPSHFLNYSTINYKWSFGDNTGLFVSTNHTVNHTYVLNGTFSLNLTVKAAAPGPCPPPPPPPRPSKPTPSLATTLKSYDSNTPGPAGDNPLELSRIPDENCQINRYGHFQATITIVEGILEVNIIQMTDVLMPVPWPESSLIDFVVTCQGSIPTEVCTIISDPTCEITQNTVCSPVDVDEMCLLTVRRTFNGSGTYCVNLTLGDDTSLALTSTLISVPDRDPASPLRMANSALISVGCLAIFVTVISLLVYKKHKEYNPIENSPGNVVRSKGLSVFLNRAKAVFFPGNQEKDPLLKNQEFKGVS

Results are given in words; binding and its absence hold for the method and conditions named. Some binding calls cover weakened binding; strength is not graded here.

B1: Mab1.10.2 (antibody, IgG2, V domains shown)
VH: QVQLQESGPGLVKPSETLSLTCTVSGDSISNYYWSWIRQPPGKGLEWIGYFYYSGSTNYNPSLKSRVTISVDTSKNQFSLKLSSVTAADTAVYYCARDRGWADYWGQGTLVTVSS
VL: EIVLTQSPGTLSLSPGERATLSCRTSQSISSSYLAWYQQKPGQVPRLLIYGASSRATGIPDRFSGSGSGTDFTLTISRLEPEDFAVYYCQQYGSSITFGQGTRLEIKR
As to B1, in assay [1], the binding result is reported as “binds”.

B2: Mab2.22.1 (antibody, IgG2, V domains shown)
VH: QVQLEQSGPGLVKPSQNLSLTCTVSGGSISSGGYFWSWIRQHPGKGLEWIGYIYYSGNTYYNPSLKSRVTISVDTSKNQFSLKLSSVTAADTAVYYCARDYYYDTSGFSYRYDWYYGMDVWGQGTTVTVSS
VL: DIQLTQSPSSLSASVGDRVTITCRASQGIRNDLGWYQQKPGKAPKRLIYAASSLQNGVPSRFSGSGSGTEFTLTISSLQPEDFATYYCLQHNTYPAFGQGTKVEIKR
As for B2, the binding entry in assay [2] and in assay [3] was “binds” throughout.

For the origin of these results see US20130244255A1, “ANTIBODIES DIRECTED TO GPNMB AND USES THEREOF” (priority 2006, published 2013).
